# Some of the results follow.
# B1: GS7807Q-bfa-507-19-507 (Bacteroides fragilis) (protein)
# chain: ASCNKFDDLNTNPDAATKVTAPMLATKLILNITQQGSAKNFVYHSMLSKQIAWSENASDEQYNLFGRTDFDGYTILTNCQKMVDAANEGDKDSYAALAKFMKAYKLFYKSLEVGDIPYSDALKGEEGVQKPKYDTQKEVMRQVLEDLEEAYTLFSSGSDFDGDPIFGGDTENWKKTVVAFELKVLTHLCKKDTDADLKVKERFARLVSSGSLMTSNADNFQLVYSNKAGQLYPFYYTQNKHSDYLMMSSVIIDNLKKFNDYRMFYYASPAKAQTDKGIKDSEWDAYLSIDPSDSYSNISVLYGKGEFCLANLRYTRVPEGEPLMRLSYAEQNFILAEGAVRGWISEDASTYYKKGIEASMNFIADNTPDKEEYTHGRTITQEYIQEYLAQPVIQLSGDKEKDLEMILLQRYLASFLQHPYDAYYDYRRTGYPVLPINPSTNLNTEKNKIPTRWMYPEAEFSYNPDNANEAVQRQYNGSDDVNKLMWILQ
# What was measured:
# Test in all cases: glycan array binding signal (z-score within array); higher = stronger binding
# Details in all cases: glycan notation: IUPAC condensed, linker removed
# [1] = target: Fuc(a1-2)[Gal(a1-4)]Gal(b1-4)GlcNAc
# Outline: (§1)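 Glycan array data were curated from 3228 arrays in the Consortium for Functional Glycomics database and kept only where the protein sequence was available. Glycan names were converted to IUPAC-condensed notation, and columns mapping to the same glycan were averaged. The binding signal is a within-array Z-score, averaged across arrays of the same protein sequence at different concentrations or buffers and across linkers. Negative Z-scores can be read as non-binding.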
# [2] = target: Fuc(a1-2)[GalNAc(a1-3)]Gal
# Outline: as §1
# [3] = target: Fuc(a1-2)[GalNAc(a1-3)]Gal(b1-3)GalNAc(a1-3)[Fuc(a1-2)]Gal(b1-4)GlcNAc
# Outline: as §1
# [4] = target: Fuc(a1-2)[GalNAc(a1-3)]Gal(b1-3)GalNAc(b1-3)Gal(a1-4)Gal(b1-4)Glc
# Outline: as §1
# [5] = target: Fuc(a1-2)[GalNAc(a1-3)]Gal(b1-3)GlcNAc
# Outline: as §1
# [6] = target: Fuc(a1-2)[GalNAc(a1-3)]Gal(b1-3)GlcNAc(b1-2)Man(a1-3)[Fuc(a1-2)[GalNAc(a1-3)]Gal(b1-3)GlcNAc(b1-2)Man(a1-6)]Man(b1-4)GlcNAc(b1-4)GlcNAc
# Outline: as §1
# [7] = target: Fuc(a1-2)[GalNAc(a1-3)]Gal(b1-3)GlcNAc(b1-2)Man(a1-3)[Fuc(a1-2)[GalNAc(a1-3)]Gal(b1-3)GlcNAc(b1-2)Man(a1-6)]Man(b1-4)GlcNAc(b1-4)[Fuc(a1-6)]GlcNAc
# Outline: as §1
# [8] = target: Fuc(a1-2)[GalNAc(a1-3)]Gal(b1-3)GlcNAc(b1-3)GalNAc
# Outline: as §1
# [9] = target: Fuc(a1-2)[GalNAc(a1-3)]Gal(b1-3)GlcNAc(b1-6)GalNAc
# Outline: as §1
# [10] = target: Fuc(a1-2)[GalNAc(a1-3)]Gal(b1-4)Glc
# Outline: as §1
# [11] = target: Fuc(a1-2)[GalNAc(a1-3)]Gal(b1-4)GlcNAc
# Outline: as §1
# [12] = target: Fuc(a1-2)[GalNAc(a1-3)]Gal(b1-4)GlcNAc(b1-2)Man
# Outline: as §1
# [13] = target: Fuc(a1-2)[GalNAc(a1-3)]Gal(b1-4)GlcNAc(b1-2)Man(a1-3)[Fuc(a1-2)[GalNAc(a1-3)]Gal(b1-4)GlcNAc(b1-2)Man(a1-6)]Man(b1-4)GlcNAc(b1-4)GlcNAc
# Outline: as §1
# [14] = target: Fuc(a1-2)[GalNAc(a1-3)]Gal(b1-4)GlcNAc(b1-2)Man(a1-3)[Fuc(a1-2)[GalNAc(a1-3)]Gal(b1-4)GlcNAc(b1-2)Man(a1-6)]Man(b1-4)GlcNAc(b1-4)[Fuc(a1-6)]GlcNAc
# Outline: as §1
# [15] = target: Fuc(a1-2)[GalNAc(a1-3)]Gal(b1-4)GlcNAc(b1-3)Gal(b1-4)GlcNAc
# Outline: as §1
# [16] = target: Fuc(a1-2)[GalNAc(a1-3)]Gal(b1-4)GlcNAc(b1-3)Gal(b1-4)GlcNAc(b1-3)Gal(b1-4)GlcNAc
# Outline: as §1
# [17] = target: Fuc(a1-2)[GalNAc(a1-3)]Gal(b1-4)GlcNAc(b1-3)GalNAc
# Outline: as §1
# [18] = target: Fuc(a1-2)[GalNAc(a1-3)]Gal(b1-4)GlcNAc(b1-3)[Fuc(a1-2)[GalNAc(a1-3)]Gal(b1-4)GlcNAc(b1-6)]GalNAc
# Outline: as §1
# [19] = target: Fuc(a1-2)[GalNAc(a1-3)]Gal(b1-4)GlcNAc(b1-6)GalNAc
# Outline: as §1
# [20] = target: Fuc(a1-2)[GalNAc(a1-3)]Gal(b1-4)[Fuc(a1-3)]GlcNAc
# Outline: as §1
# [21] = target: Fuc(a1-2)[GalNAc(a1-3)]Gal(b1-4)[Fuc(a1-3)]GlcNAc(b1-3)GalNAc
# Outline: as §1
# [22] = target: Fuc(a1-2)[GalNAc(a1-4)]Gal(b1-4)GlcNAc
# Outline: as §1
# [23] = target: Fuc(a1-2)[GalNAc(b1-3)]Gal
# Outline: as §1
binder,measurement,setting,value
B1,glycan array binding signal (z-score),[1],0.068
same,glycan array binding signal (z-score),[2],-0.197
same,glycan array binding signal (z-score),[3],0.46
same,glycan array binding signal (z-score),[4],0.231
same,glycan array binding signal (z-score),[5],0.29
same,glycan array binding signal (z-score),[6],-0.552
same,glycan array binding signal (z-score),[7],-0.523
same,glycan array binding signal (z-score),[8],0.376
same,glycan array binding signal (z-score),[9],-0.083
same,glycan array binding signal (z-score),[10],-0.855
same,glycan array binding signal (z-score),[11],-0.557
same,glycan array binding signal (z-score),[12],-0.891
same,glycan array binding signal (z-score),[13],0.461
same,glycan array binding signal (z-score),[14],-0.243
same,glycan array binding signal (z-score),[15],-0.569
same,glycan array binding signal (z-score),[16],-0.64
same,glycan array binding signal (z-score),[17],-0.822
same,glycan array binding signal (z-score),[18],-0.373
same,glycan array binding signal (z-score),[19],-0.208
same,glycan array binding signal (z-score),[20],-0.603
same,glycan array binding signal (z-score),[21],1.49
same,glycan array binding signal (z-score),[22],-0.138
same,glycan array binding signal (z-score),[23],-0.189

# Laid out differently: results already given
binder	measurement	setting	value
B1	glycan array binding signal (z-score)	[1]	0.068
same	glycan array binding signal (z-score)	[2]	-0.197
